Source: PMC5779224
Results are given in words; binding and its absence hold for the method and conditions named.

Experiments:
[1] = biological target: AnkB 28–847 (MBD + partial AI-c) (human) (UniProt Q01484); assay: ITC; VP-ITC MicroCal, 25 °C; proteins in 50 mM Tris-HCl pH 7.8, 1 mM DTT, 1 mM EDTA with 100 mM or 500 mM NaCl as required; who was titrated is not told; both purified
[2] = biological target: AnkG 38–855 (AnkG MBD-AI-c protein; MBD + partial AI-c) (rat) (UniProt O70511); assay: as above

B1: AnkB_AI-b Met884Ala, Tyr886Ala (domain or fragment, UniProt Q01484-2 865-896)
chain: EDLKELGDDSLPSSQFLDGANALRYSLEGGRS
binding [1]: no binding

B2: AnkG linker (861-920) Asp887Ala, Asp889Ala, Lys890Glu (domain or fragment, UniProt O70511-1 861-920)
chain: KASAPEKLSDGEYISDGEEGEDAITGATAEYLGPQDLKELGDDSLPAEGYVGFSLGARSA
binding [2]: no binding
